# Data taken from PubChem BioAssay AID445 (National Center for Advancing Translational Sciences (NCATS), 2006).
# Some of the results follow. The main result of the screen is listed elsewhere. These columns were measured beside it and carry no call. Most of these compounds were active or inconclusive in the main read-out, so they are no random draw. Potencies come from curve fits of mixed quality, noted in brackets.
# Test: IkB Signaling
# Conditions: ABC-DLBCL IkBa-CBG/CBR dual luciferase ratio (green luciferase fused to IkBa over red control in OCI-Ly3 lymphoma cells), 4 h
# In short: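 In this assay, an IκBα–CBG68 fusion accumulates when IKK-driven degradation is blocked; native CBR normalizes for cell number. OCI-Ly3 cells were treated 4 h with compound and doxycycline, then green and red light read after Chroma-Glo addition.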
# [1] = measured here: control luc red channel unless noted
# [2] = measured here: IkB-luc green channel
# [3] = measured here: control luc red channel
compound,measurement,setting,value
Cc1c(C(=O)OC2CCCCC2)sc2nc[nH]c(=O)c12,AC50,[1],"3.98 µM [rising, partial curve]"
Cc1cccc(OCCSc2nc3ccccc3n2CC(=O)N2CCOCC2)c1C,AC50,[1],"10 µM [falling, partial curve]"
CC(C)(C)NS(=O)(=O)c1cccc(S(=O)(=O)c2cccc(S(=O)(=O)NC(C)(C)C)c2)c1,AC50,[1],"15.8 µM [falling, partial curve]"
CCOc1ccc(C2C(C(N)=O)=C(C)Nc3nc(-c4cccc(Cl)c4)nn32)cc1OC (stereo not drawn),AC50,[1],"39.8 µM [falling, single point]"
CCOC(=O)N1CCN(Cc2nc3cc(NC(=O)c4ccc([N+](=O)[O-])cc4)ccc3n2C(C)C)CC1,AC50,[1],"25.1 µM [falling, single point]"
CC1Cn2cc(C(=O)Nc3ccccc3C(F)(F)F)c(=O)c3c(Cl)ccc(c32)O1 (stereo not drawn),AC50,[1],"3.98 µM [rising, full curve, poor fit]"
CC(C)Oc1ccc(C(=O)Nc2nc3c(s2)CC(C(C)(C)C)CC3)cc1 (stereo not drawn),AC50,[1],"25.1 µM [falling, single point]"
COC(=O)c1[nH]c2ccc(Cl)cc2c1NC(=O)CN1CCc2cc(OC)c(OC)cc2C1,AC50,[1],"15.8 µM [falling, partial curve]"
O=c1c2ccccc2nc2n1CCc1c-2[nH]c2ccccc12,AC50,[1],"316 nM [falling, full curve, poor fit] [measured here: IkB-luc green channel]"
O=C(/C=C/c1ccccc1)N1CCN(Cc2cc(=O)n3nc(-c4ccccc4Cl)sc3n2)CC1,AC50,[1],"39.8 µM [falling, single point]"
CCn1c(SCC(=O)c2ccccc2)nnc1-c1cnccn1,AC50,[1],"7.94 µM [falling, partial curve]"
COc1ccc2[nH]c(C(=O)c3ccccc3)cc2c1,AC50,[1],"0.126 µM [rising, full curve]"
COc1ccc(Cl)cc1NS(=O)(=O)c1c(C)[nH]c(=O)[nH]c1=O,AC50,[1],"3.98 µM [rising, partial curve]"
Cc1ccc(O)c(NC(=O)CCSc2nc(-c3ccco3)cc(C(F)(F)F)n2)c1,AC50,[2],"39.8 µM [rising, single point]"
same,AC50,[3],"39.8 µM [rising, single point]"
O=C(CN1C(=O)C2(SCC(=O)N2c2ccc(Cl)cc2)c2ccccc21)NCCc1ccccc1 (stereo not drawn),AC50,[1],"31.6 µM [falling, single point]"
Cc1ccc(-c2nc(C(=O)NC3CCCCCC3)no2)cc1,AC50,[1],"31.6 µM [falling, partial curve]"
CCc1cccc(NC(=O)c2cccc3c2C(=O)N(C2CCCCC2)C3)c1,AC50,[1],"1.26 µM [rising, full curve]"
COc1nnc(-c2ccc(N3CCCCC3)c(NC(=O)c3ccccc3)c2)c2ccccc12,AC50,[1],"10 µM [falling, partial curve]"
O=C(NCC(c1cccnc1)N1CCc2ccccc21)C(=O)Nc1ccccc1F (stereo not drawn),AC50,[1],"3.98 µM [falling, full curve]"
N#CC(=C1SC=CS1)c1nc(-c2ccccc2)cs1,AC50,[1],"20 µM [falling, single point]"
CCOC(=O)c1c(C)n(S(=O)(=O)c2ccc(C)cc2)c2ccc(NS(=O)(=O)c3ccc(C)cc3)cc12,AC50,[1],"0.631 µM [rising, full curve, poor fit]"
COc1ccc(-c2nnc(SC3CCOC3=O)n2C2CCCCC2)cc1OC (stereo not drawn),AC50,[1],"2 µM [falling, full curve]"
CCOC(=O)c1nnn(CC(=O)NC(=O)Nc2ccc(F)cc2)c1C(=O)OCC,AC50,[1],"0.0251 µM [falling, full curve, poor fit]"
COc1ccc(-n2c(Cc3cccn3C)nnc2SCC(=O)Nc2ccc(C)c(Cl)c2)cc1,AC50,[1],"15.8 µM [falling, partial curve]"
CCN(CC)C(=O)CSCC(=O)Nc1ccccc1,AC50,[1],"3.98 µM [falling, partial curve]"
O=C(NCc1ccccc1Cl)c1ccc(NC(=O)c2nsc3ccccc23)cc1,AC50,[1],"0.158 µM [falling, full curve]"
O=C(CCCCCN1C(=O)c2ccccc2C1=O)NC1CCCC1,AC50,[1],"15.8 µM [falling, partial curve] [measured here: IkB-luc green channel]"
CCOc1ccc2nc(N3CCC(C(=O)Nc4ccc(Br)cc4F)CC3)sc2c1,AC50,[1],"3.98 µM [falling, partial curve]"
CC1CCN(S(=O)(=O)c2ccc3c(ccn3CC(=O)NCc3ccc(N(C)C)cc3)c2)CC1,AC50,[1],"6.31 µM [falling, full curve]"
COc1ccc(Cl)cc1NC(=O)CN(c1ccccc1)S(=O)(=O)N(C)C,AC50,[1],"25.1 µM [falling, single point]"
Cc1c(C(=O)Nc2ccccc2Br)oc2ccc(S(=O)(=O)N3CCOCC3)cc12,AC50,[1],"15.8 µM [rising, partial curve]"
CCC1CN(C(=O)N2CCC(C(=O)N3CCN(c4ccc(F)cc4)CC3)CC2)c2ccccc2O1 (stereo not drawn),AC50,[1],"7.94 µM [falling, partial curve]"
Cc1ccc(NC(=O)C2CCN(C(=O)c3cnn(-c4ccccc4)c3-n3cccc3)CC2)cc1,AC50,[1],"12.6 µM [falling, single point]"
COc1ccc(S(=O)(=O)N2CCCC2C(=O)Nc2nc3c(s2)CCCC3)cc1 (stereo not drawn),AC50,[1],"25.1 µM [falling, partial curve]"
COc1ccc(NS(=O)(=O)c2ccc3c(c2)CCCN3C(=O)C2CCC2)cc1OC,AC50,[1],"39.8 µM [falling, single point]"
Cc1ccc(S(=O)(=O)Nc2ccc3nc(-c4cccn4C)[nH]c3c2)cc1,AC50,[1],"12.6 µM [falling, partial curve]"
COc1ccc(S(=O)(=O)Cc2ccc(C(=O)N3CCN(c4cc(C)ccc4C)CC3)o2)cc1,AC50,[1],"20 µM [falling, partial curve]"
O=C(Nc1cccc(-c2nc3ccccc3[nH]2)c1)c1c(F)cccc1F,AC50,[1],"31.6 µM [falling, single point]"
CCCNC(=O)c1c(NC(=O)c2ccc(C)cc2)sc2c1CCCCC2,AC50,[1],"39.8 µM [falling, single point]"
CN(C)CCCn1cc(C2=C(c3c[nH]c4ccccc34)C(=O)NC2=O)c2ccccc21,AC50,[1],"12.6 µM [falling, partial curve]"
CCOC(=O)c1c(C)oc2nc(C)nc(NCCCN3CCN(c4cc(Cl)ccc4C)CC3)c12,AC50,[1],"31.6 µM [falling, single point]"
CCOC(=O)c1cccc(NC(=O)Nc2ccc3c(c2)N(C)C(=O)c2ccccc2S3)c1,AC50,[1],"7.94 µM [falling, partial curve]"
COc1ccc2c(c1)CCc1c(C(=O)Nc3c(C)nn(Cc4c(Cl)cccc4Cl)c3C)noc1-2,AC50,[1],"2 µM [falling, partial curve]"
C/C(Cl)=C/Cn1c(NCCCn2ccnc2)nc2c1c(=O)[nH]c(=O)n2C,AC50,[1],"1.26 µM [rising, partial curve] [measured here: IkB-luc green channel]"
O=C(c1cccs1)c1cn(CCOc2ccc(F)cc2)c2ccccc12,AC50,[1],"10 µM [falling, partial curve]"
O=C(Cn1cnc2onc(-c3ccc(F)cc3)c2c1=O)N1CCN(c2ccccc2F)CC1,AC50,[1],"6.31 µM [rising, single point]"
O=C(O)Cc1sc(Nc2ccc(C(=O)O)cc2)nc1-c1ccccc1,AC50,[1],"0.1 µM [falling, full curve]"
COc1cc2ccccc2cc1C(=O)Nc1cccc(-c2nc3ccccc3o2)c1,AC50,[1],"6.31 µM [falling, full curve]"
CC(C(=O)NCc1cccc(Br)c1)n1ncn2cccc2c1=O (stereo not drawn),AC50,[1],"3.98 µM [falling, single point]"
Cc1ccc(NC(=O)c2c(C(=O)Nc3ccccc3)sc3nc(C)cc(=O)n23)cc1,AC50,[1],"12.6 µM [falling, partial curve]"
Cc1ccccc1NC(=O)CCOc1ccccc1,AC50,[1],"31.6 µM [falling, single point]"
COc1cc(-c2nc3ccc(Cl)cn3c2Nc2ccc3c(c2)OCO3)ccc1O,AC50,[1],"20 µM [falling, partial curve]"
CCOc1cccc(C(=O)Nc2ccc(N(CC)CC)cc2)c1,AC50,[1],"15.8 µM [falling, partial curve]"
CC(NC(=O)c1ccc(CSc2nc3ccncc3n2Cc2ccc(F)cc2)cc1)c1ccccc1 (stereo not drawn),AC50,[1],"12.6 µM [falling, partial curve]"
O=C(CC1CCCCC1)c1c(O)c2ccccc2oc1=O,AC50,[1],"1.58 µM [falling, full curve]"
Cc1cc(Nc2cccc(F)c2)nc(-c2ccccc2O)n1,AC50,[1],"39.8 µM [rising, single point] [measured here: IkB-luc green channel]"
O=C(CSC1=NS(=O)(=O)c2ccccc21)Nc1ccccc1,AC50,[2],"3.98 µM [rising, full curve]"
same,AC50,[3],"0.00316 µM [falling, full curve]"
CCOC(=O)c1cnc(-c2ccccc2)nc1N,AC50,[1],"10 µM [falling, partial curve]"
COCCNC(=O)c1ccc2c(c1)N(Cc1ccc(C(F)(F)F)cc1)C(=O)c1ccccc1S2,AC50,[1],"12.6 µM [falling, partial curve]"
COc1ccc(-c2cn(-c3ccc(C)cc3)c(S(=O)(=O)CC(=O)Nc3ccccc3)n2)cc1,AC50,[1],"12.6 µM [falling, partial curve]"
Cc1ccc(CNC(=O)CN(C)S(=O)(=O)c2ccc(Br)s2)cc1,AC50,[1],"3.16 µM [falling, partial curve]"

# A portion from the list above, as a working copy:
compound,measurement,setting,value
O=c1c2ccccc2nc2n1CCc1c-2[nH]c2ccccc12,AC50,[1],"316 nM [falling, full curve, poor fit] [measured here: IkB-luc green channel]"
O=C(/C=C/c1ccccc1)N1CCN(Cc2cc(=O)n3nc(-c4ccccc4Cl)sc3n2)CC1,AC50,[1],"39.8 µM [falling, single point]"
CCn1c(SCC(=O)c2ccccc2)nnc1-c1cnccn1,AC50,[1],"7.94 µM [falling, partial curve]"
COc1ccc2[nH]c(C(=O)c3ccccc3)cc2c1,AC50,[1],"0.126 µM [rising, full curve]"
COc1ccc(Cl)cc1NS(=O)(=O)c1c(C)[nH]c(=O)[nH]c1=O,AC50,[1],"3.98 µM [rising, partial curve]"
